# Test results: PubChem BioAssay AID485314 (National Center for Advancing Translational Sciences (NCATS), 2010)
# In all, about 340,000 compounds went through this assay and about 4,500 (1.3%) were called active. This list was built around the results that the source calls inconclusive (neither active nor inactive); the mix of calls is not that of the screen. Calls come from the whole dose curve; as a rule, active = well fitted inhibition curve with a large enough effect; inconclusive = small, poorly fitted or top-dose-only effect, or another doubt; inactive = no such curve, though single readings can be large or run the other way. Potencies of inconclusive entries are doubtful fits and often do not repeat.
# Target: DNA polymerase beta (Homo sapiens) (UniProt P06746)
# Experiment: qHTS Assay for Inhibitors of DNA Polymerase Beta
# Conditions: Pol beta primer extension/strand displacement, fluorescence kinetic; series mostly up to 114 µM
# Method in brief: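 10 nM enzyme + cpd, 15 min RT; start with substrate 50 nM final; read 0 min and after 10 min RT. Corrected, normalized data; 4-parameter Hill curve fit.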
# Potency is the fitted concentration of half-maximal effect.
row,SMILES,Potency
1,COc1ccc(NC(=O)/C(=C\c2cccnc2)NC(=O)c2cccs2)cc1,"inconclusive: 89.1 µM [inhibitor, single point]"
2,CCOC(=O)c1c2c3c(cccc3n(C)c1=O)C(=O)c1ccccc1-2,"inconclusive: 12.6 µM [inhibitor, partial curve, poor fit]"
3,Cc1cccc(CCNC(=O)c2cccc3c2C(=O)N(C2CCCCC2)C3)c1,active: 11.2 µM
4,Cc1c(Cl)cccc1NS(=O)(=O)c1ccc2c(c1)C1C=CCC1C(c1ccc(C(=O)O)cc1)N2 (stereo unspecified),active: 22.4 µM
5,O=c1oc2ccccc2cc1-c1csc(NN=C2CCCC2)n1,inactive
6,Nc1c(N2CCCC2)cc(Cl)c2nonc12,"inconclusive: 25.1 µM [inhibitor, full curve]"
7,C/C(=N\OC(=O)Nc1ccc(Cl)cc1)c1ccc(F)c(F)c1,"inconclusive: 25.1 µM [inhibitor, partial curve]"
8,O=C(Nc1cccc([N+](=O)[O-])c1)c1ccc2c(c1)C(=O)N(c1ccccn1)C2=O,active: 44.7 µM
9,Cc1cc(C(=O)OCC(=O)N(C)C2CCS(=O)(=O)C2)c(C)n1-c1ccccc1 (stereo unspecified),"inconclusive: 89.1 µM [inhibitor, single point]"
10,CC(C)CC(=O)Nc1cc2c3c(c1)C(C)C(=O)N3CCC2 (stereo unspecified),inactive
11,CCn1ccc2c(OCC(=O)Nc3ccccc3C(F)(F)F)cccc2c1=O,inactive
12,CC(=O)Nc1ccc2c(COC(=O)CC3Sc4ccccc4NC3=O)cc(=O)oc2c1 (stereo unspecified),active: 7.94 µM
13,Cc1ccccc1NCCC(=O)Nc1ccc(Cl)cc1,inactive
14,c1ccc2nc(N3CCN(Cc4ccc5c(c4)OCO5)CC3)cnc2c1,"inconclusive: 8.91 µM [inhibitor, partial curve]"
15,O=C(CSc1nnc(NC(=O)c2ccccc2)s1)NC1CCCC1,"inconclusive: 3.98 µM [inhibitor, full curve, poor fit]"
16,Oc1ccc(-c2csc(Nc3ccccn3)n2)cc1O,active: 7.94 µM
17,O=S(=O)(Cc1ccccc1)N1CCN(c2ncccn2)CC1,inactive
18,CCOc1ccc(NS(=O)(=O)N(C)C)cc1,"inconclusive: 89.1 µM [inhibitor, single point]"
19,Cc1ccc(NNC(=O)C(O)(c2cccc(C(F)(F)F)c2)c2cccc(C(F)(F)F)c2)cc1,"inconclusive: 79.4 µM [inhibitor, single point]"
20,CCn1c2ccccc2c2cc(NC(=O)c3ccc(Br)o3)ccc21,"inconclusive: 39.8 µM [inhibitor, full curve, poor fit]"
21,CN1CCN(S(=O)(=O)c2ccc(NC(=O)c3ccccc3F)cc2)CC1,"inconclusive: 28.2 µM [inhibitor, single point]"

# Some of these compounds in order of count of non-hydrogen atoms, low to high.
row,SMILES,Potency
18,CCOc1ccc(NS(=O)(=O)N(C)C)cc1,"inconclusive: 89.1 µM [inhibitor, single point]"
21,CN1CCN(S(=O)(=O)c2ccc(NC(=O)c3ccccc3F)cc2)CC1,"inconclusive: 28.2 µM [inhibitor, single point]"
11,CCn1ccc2c(OCC(=O)Nc3ccccc3C(F)(F)F)cccc2c1=O,inactive
